This assay can be described thus: qHTS Assay to Find Inhibitors of Chronic Active B-Cell Receptor Signaling. To be noted: ABC-DLBCL IkBa-CBG/CBR reporter, luminescence ratio (green luciferase fused to IkBa over red control in TMD8 lymphoma cells), 4 h. An outline of the steps: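 TMD8 ABC-DLBCL cells carrying doxycycline-inducible green luciferase fused to IkappaBalpha plus unfused red luciferase were exposed to compounds (up to 46 uM) for 4 hrs at 37C. Activity came from the overlap-corrected green/red luminescence ratio.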
A general note: qHTS replaces the single test concentration by a dilution series.

The mark [1] stands for this setting: measured here: CBR red luminescence, cell number.
The mark [2] stands for this setting: measured here: IkBa-CBG green luminescence.

A word on the AC50: it is the midpoint of the concentration-response curve, whichever way the signal moves.

The other results are listed elsewhere or left out. Shown are side measurements of this screen, not its main read-out; they come without a call. Most of these compounds were active or inconclusive in the main read-out, so they are no random draw. Potencies come from curve fits of mixed quality, noted in brackets.

With `CN(C)C(=O)CSc1n[nH]c(=O)[nH]c1=O`, the AC50 under setting [1] is 35.5 µM [falling, single point].
Same read-out and setting: as for `Nc1nnc(-c2ccc(Cl)cc2)o1`, the figure is 8.91 µM [rising, partial curve, poor fit]; as for `COc1ccccc1C(=O)Nc1cccc(C(=O)c2ccccc2)c1`, 35.5 µM [falling, single point]; as for `COC(=O)CN1C(=S)N(c2ccc(Cl)cc2)C(=O)C1CC(=O)Nc1ccc(Cl)cc1` (centres undefined), 35.5 µM [falling, partial curve, poor fit].
Still for that read-out and setting: for `CCOc1ccccc1CN1CCCC(C(=O)Nc2cccc(-n3cccn3)c2)C1` (centres undefined) the value was 35.5 µM [falling, single point]; for `COc1cc(/C=N/N=C(\N)c2nonc2N)cc(OC)c1O`, 35.5 µM [falling, single point]; for `CCC(C)NS(=O)(=O)c1ccc(OCC(=O)NCc2cccnc2)cc1` (centres undefined), 25.9 µM [rising, single point].
On the same count and under the same terms, for `Cc1cc(N=Cc2c(O)ccc3cc(Br)ccc23)no1` the value was 25.9 µM [falling, single point].
In the case of `O=C(NCCOc1ccc(Cl)cc1)c1ccco1`, under setting [1], the AC50 is 12.6 µM [rising, partial curve].
On the same count and under the same terms, for `O=C(CSc1nnc(-c2cccnc2)o1)c1cc2ccccc2oc1=O` the value was 9.2 µM [falling, partial curve, poor fit].
As to `O=C(O)C1CCN(c2nc(-c3ccccc3)c3cc(Br)ccc3n2)CC1`, the AC50 is 5.62 µM [falling, full curve] under setting [1] and 3.16 µM [rising, full curve, poor fit] under setting [2].
In the case of `CCn1c(/C=C/c2ccc(F)cc2)nc2ccccc2c1=O`, the AC50 under setting [1] is 3.98 µM [rising, single point].
For `COc1ccc(-n2cc(CNCc3cnc4ccccn34)c(-c3cccc(F)c3)n2)cc1`, the AC50 under setting [1] is 14.1 µM [falling, single point] and the AC50 under setting [2] was 31.6 µM [rising, partial curve, poor fit].
`O=C(NC12CC3CC(CC(C3)C1)C2)c1ccc(-c2ccc(Br)cc2)o1`: the AC50 under setting [1] is 11.6 µM [rising, partial curve].
The same measure, in the same setting: as for `CCOC(=O)CCCc1c[nH]c2ccccc12`, the figure is 6.31 µM [rising, single point].
On the same count and under the same terms, as for `S=C(Nc1cccc2ccccc12)NC1CCCCC1`, the figure is 28.2 µM [rising, single point].
Regarding `O=C(NC1CC1)c1cccc(Nc2ccc(-c3ccc4c(c3)OCCO4)nn2)c1`, the concentration at half-maximal activity (AC50) under setting [1] was 3.26 µM [falling, full curve, poor fit].
On the same count and under the same terms, as for `Cc1cccc(NC(=S)N(Cc2cccs2)Cc2cc3cc(C)cc(C)c3[nH]c2=O)c1`, the figure is 16.4 µM [rising, single point].
`COC(=O)N/N=C/c1sc(N2CCCCC2)nc1-c1cccs1`: the AC50 under setting [1] was 35.5 µM [falling, single point].
Same read-out and setting: for `COc1ccc(C)cc1NS(=O)(=O)c1cc(C)ccc1C` the value was 20.6 µM [rising, single point]; for `C/C(=N\NC(=O)c1ccc(O)cc1)c1ccc(NC(=O)Cc2ccccc2)cc1`, 0.501 µM [falling, full curve, poor fit]; for `Cc1ccc(NC(=O)COC(=O)c2cccc(N3C(=O)c4ccccc4C3=O)c2)cc1`, 8.91 µM [falling, partial curve, poor fit].
Same read-out and setting: as for `Cc1nc(S/C(=C/c2ccc(-c3ccc(Cl)cc3)o2)C(=O)O)n[nH]1`, the figure is 0.116 µM [falling, full curve, poor fit]; as for `CC1=NN(C(=O)c2cc(C)nn2C)C(O)(C(F)(F)F)C1` (centres undefined), 29.1 µM [falling, single point]; as for `CCN(CC)CCNc1nc(-c2ccccc2)c2c(c1C#N)CC(C)(C)OC2`, 6.51 µM [rising, single point].
Turning to `CCOC(=S)N/C(=N\S(=O)(=O)c1ccccc1)c1ccccc1`, the AC50 under setting [1] was 5.17 µM [rising, full curve, poor fit].
Still for that read-out and setting: for `COc1ccc(C2CC3(CC(C)(C)NC(=S)N3)Oc3cc(O)cc(C)c32)cc1OC` (centres undefined) the value was 15.8 µM [falling, partial curve]; for `O=C(Nc1ccc(S(=O)(=O)N2CCOCC2)cc1)c1ccc(Br)o1`, 4.11 µM [rising, single point].
Turning to `CCOc1ccccc1NC(=O)CSc1nnc(-c2cnccn2)n1CC`, the AC50 under setting [1] was 20.6 µM [falling, single point].
For the compound `CN(C)CCOc1ccccc1-c1ccccc1`, under setting [1], the AC50 is 1.64 µM [rising, partial curve, poor fit].
Same read-out and setting: as for `N=C1N(/N=C/c2ccccc2)C(=Nc2ccccc2)C(=S)N1c1ccccc1`, the figure is 16.4 µM [falling, partial curve].
Still for that read-out and setting: as for `COc1ccc(S(=O)(=O)Nc2ccc(Oc3ccsc3C(=O)O)cc2)cc1`, the figure is 5.62 µM [rising, full curve, poor fit]; as for `COc1cc(C(=S)N2CCCCC2)ccc1O`, 29.1 µM [rising, single point].
The same measure, in the same setting: as for `O=C(N/N=C\c1ccc(Cl)cc1Cl)c1sccc1-n1cccc1`, the figure is 5.01 µM [rising, partial curve, poor fit]; as for `COc1ccc(-n2cc(-c3ccc(Cl)cc3)[nH]c2=S)cc1`, 22.4 µM [rising, partial curve, poor fit]; as for `CCN(CC)S(=O)(=O)c1ccc(NC(=O)CSc2ncnc3ccccc23)cc1`, 20.6 µM [falling, single point].
In the case of `CCOc1ccccc1NC(=O)NCc1ccccc1F`, the AC50 under setting [1] was 35.5 µM [rising, single point].
Same read-out and setting: as for `N/C(CN1CCCC1=O)=N\OC(=O)c1ccc(Cl)c(Cl)c1`, the figure is 16.4 µM [rising, partial curve, poor fit]; as for `O=C(CCN1N=C(c2ccccc2)CCC1=O)NC1CCCC1`, 0.112 µM [rising, full curve, poor fit].
Still for that read-out and setting: as for `O=C(COc1ccc(F)cc1)OCCN1CCOCC1`, the figure is 29.1 µM [falling, single point].
On the same count and under the same terms, as for `CCOc1ccc(N=C(C)C2=C(O)c3ccccc3C2=O)cc1`, the figure is 2 µM [rising, partial curve, poor fit]; as for `CCS(=O)(=O)N1Cc2ccccc2CC1C(=O)Nc1ccc(OC)c(OC)c1` (centres undefined), 35.5 µM [rising, partial curve, poor fit].
